Library compounds against nucleic acid targets

Calls as published in the ROBIN set (doi:10.1002/anie.202211358).

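The test is a small-molecule microarray: each compound is printed twice on a reactive slide, and binding shows as fluorescence of the labelled oligonucleotide after washing. The data file lists only calls. An earlier report of the laboratory on the PreQ1, TPP and SAM-II riboswitches (doi:10.1038/s41467-019-09493-3) used 1 µM RNA for 2 h and required a mean Z-score above 3 (spot signal-to-noise against the whole library), a score well above that on a control array, and duplicate spots agreeing (coefficient of variation under 100); it then also set aside compounds that hit other targets, which this list keeps. The cut-offs behind this list may differ. A missing hit is not proof of no binding, and a hit is not a measured affinity.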 A compound is marked active if it was called a hit and inactive if it was screened but was not. The compounds are a random part of those screened.

Oligonucleotides screened, 5′ to 3′:
SAM-II: SAM-II riboswitch RNA pseudoknot, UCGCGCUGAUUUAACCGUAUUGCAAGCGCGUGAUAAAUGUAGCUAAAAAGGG. About 21,000 compounds screened, about 200 hits.
PreQ1: PreQ1 riboswitch RNA pseudoknot, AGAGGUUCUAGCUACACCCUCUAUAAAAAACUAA. From B. subtilis. About 24,000 compounds screened, about 170 hits.
TPP: TPP riboswitch RNA three-way junction, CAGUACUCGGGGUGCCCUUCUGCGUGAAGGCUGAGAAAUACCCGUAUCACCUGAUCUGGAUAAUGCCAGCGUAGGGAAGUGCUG. About 24,000 compounds screened, about 160 hits.

For Cc1cc(C)n(-c2ccc(C(=O)NCCCc3nnc(N)s3)cc2)n1 the calls were SAM-II: inactive; PreQ1: inactive; TPP: inactive.
For COc1ccccc1-n1cc(C(=O)N2CCNC(c3ccccc3)C2)cn1 (stereo unspecified) the calls were SAM-II: inactive; PreQ1: inactive; TPP: inactive.
For O=C(Cc1noc2ccccc12)N1CC[C@H]2CNC[C@H]21 the calls were SAM-II: inactive; PreQ1: inactive; TPP: inactive.
For Cc1ccc(OCC(O)CN2CCCCC2)c(C)c1 (stereo unspecified) the calls were SAM-II: inactive; PreQ1: inactive; TPP: inactive.
For COc1cccc(-c2cn[nH]c2C2CCN(c3ccnc(N)n3)CC2)c1 the calls were SAM-II: inactive; PreQ1: inactive; TPP: inactive.
For Cc1ccc2nc(Nc3ccccc3Cl)c3nncn3c2c1 the calls were SAM-II: inactive; PreQ1: inactive; TPP: inactive.
For Oc1ccccc1-n1c(-c2ccccc2)ccc1-c1ccccc1 the calls were SAM-II: inactive; PreQ1: inactive; TPP: inactive.
For COc1ccccc1-c1ccc2c(N)c(-c3ccncc3)sc2n1 the calls were SAM-II: inactive; PreQ1: inactive; TPP: inactive.
For Cc1ccc([C@H]2CN(S(=O)(=O)c3c(C)noc3C)C[C@@H]2N)o1 the calls were SAM-II: inactive; PreQ1: inactive; TPP: inactive.
For Cc1cc(C[C@@H]2COC[C@@H]2NC(=O)c2cccc3c2NCCC3)on1 the calls were SAM-II: inactive; PreQ1: inactive; TPP: inactive.
For N[C@@H]1CC[C@H](C(=O)NCc2cccc(C(F)(F)F)c2F)C1 the calls were SAM-II: inactive; PreQ1: inactive; TPP: inactive.
For Cc1cc(C)c2c(N)c(C(=O)N3c4ccccc4C=Cc4ccccc43)sc2n1 the calls were SAM-II: inactive; PreQ1: inactive; TPP: inactive.